PMC3823977
Residue numbers refer to the chain shown, from its start. No constants are given. Whether binding was seen depends on the method and setting. Some results given as binding are weak or reduced against the parent protein; the word gives no strength. Tags and fused reporters may be left off the sequences shown.

Sequences of proteins named here, by UniProt entry; tags and fusion partners are left off. Residues count along the entry.
UniProt Q12873, residues 1852-2000: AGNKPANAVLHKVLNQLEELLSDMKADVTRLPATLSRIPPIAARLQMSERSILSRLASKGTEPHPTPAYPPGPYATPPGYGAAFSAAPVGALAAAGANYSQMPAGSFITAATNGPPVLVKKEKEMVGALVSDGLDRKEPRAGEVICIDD
UniProt Q13569, residues 74-410: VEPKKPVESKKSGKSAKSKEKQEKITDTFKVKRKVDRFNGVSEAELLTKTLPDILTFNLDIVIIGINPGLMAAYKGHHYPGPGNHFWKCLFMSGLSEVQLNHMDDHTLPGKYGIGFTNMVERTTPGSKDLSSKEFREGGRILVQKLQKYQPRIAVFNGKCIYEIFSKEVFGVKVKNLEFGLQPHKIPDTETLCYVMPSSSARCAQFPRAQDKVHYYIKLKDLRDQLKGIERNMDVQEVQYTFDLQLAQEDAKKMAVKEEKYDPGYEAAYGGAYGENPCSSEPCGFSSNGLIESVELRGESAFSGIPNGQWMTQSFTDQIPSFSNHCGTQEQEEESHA
UniProt Q06265, residues 158-439: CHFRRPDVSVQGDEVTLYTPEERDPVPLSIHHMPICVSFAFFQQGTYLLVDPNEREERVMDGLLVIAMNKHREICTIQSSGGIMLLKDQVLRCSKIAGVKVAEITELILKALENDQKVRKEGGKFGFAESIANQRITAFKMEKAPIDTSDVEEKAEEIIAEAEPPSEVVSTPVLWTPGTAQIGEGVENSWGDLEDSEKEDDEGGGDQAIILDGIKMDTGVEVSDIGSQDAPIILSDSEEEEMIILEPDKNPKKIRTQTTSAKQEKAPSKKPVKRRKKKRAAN

Tests used:
Experiment in all cases: two-hybrid; yeast, Matchmaker GAL4 system; senataxin 1–650 baits in pGBKT7-BD, human brain library preys in pGADT7-Rec; library screens by mating, retest by mating and by co-transformation with patching of serial dilutions on Leu-/Trp-/His- medium with 3 mM 3-AT
[1] = target: T1, BD-SETX-W305C, senataxin amino-terminal bait with the AOA2 mutation W305C (human) (UniProt Q7Z333)
T1 sequence: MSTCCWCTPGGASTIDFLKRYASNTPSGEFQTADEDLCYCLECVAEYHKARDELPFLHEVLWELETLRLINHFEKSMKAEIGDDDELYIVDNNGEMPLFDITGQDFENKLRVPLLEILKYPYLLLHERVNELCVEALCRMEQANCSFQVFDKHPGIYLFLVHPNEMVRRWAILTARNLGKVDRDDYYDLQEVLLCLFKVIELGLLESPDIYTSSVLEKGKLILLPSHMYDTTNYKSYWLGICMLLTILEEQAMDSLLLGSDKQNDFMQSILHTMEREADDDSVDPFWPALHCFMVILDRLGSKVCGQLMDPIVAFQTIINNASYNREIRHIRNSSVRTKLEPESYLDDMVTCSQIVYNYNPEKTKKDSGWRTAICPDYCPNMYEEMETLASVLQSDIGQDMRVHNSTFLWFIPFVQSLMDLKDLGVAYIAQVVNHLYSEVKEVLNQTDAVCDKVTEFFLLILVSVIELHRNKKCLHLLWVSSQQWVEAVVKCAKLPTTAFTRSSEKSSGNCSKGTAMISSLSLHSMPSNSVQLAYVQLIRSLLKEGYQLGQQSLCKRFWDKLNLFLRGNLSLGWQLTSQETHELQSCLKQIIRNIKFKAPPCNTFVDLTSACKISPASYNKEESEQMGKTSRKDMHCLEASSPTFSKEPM

[2] = target: T2, BD-SETX-L389S, senataxin residues 1–650 with the ALS4 L389S mutation as yeast two-hybrid bait (human) (UniProt Q7Z333)
T2 sequence: T1 sequence with C305W, L389S

[3] = target: T3, BD-SETX-wt, wild type senataxin residues 1–650 as yeast two-hybrid bait (human) (UniProt Q7Z333)
T3 sequence: T1 sequence with C305W

Measured: binding

CHD3, chromodomain helicase DNA-binding protein 3, library prey clone (1818–1967) (from UniProt Q12873-2 1818-1966) (domain or fragment)
binds: all assays above

Sumo, small ubiquitin-like modifier, library prey clone (1–102 tot) (from UniProt P63165-1 1-101)
binds: all assays above

TDG, G/T mismatch-thymine DNA glycosylase, library prey clone (74–411 ter) (from UniProt Q13569 74-410) (domain or fragment)
binds: all assays above

EXOSC9, exosome component 9, library prey clone (158–440 ter) (from UniProt Q06265-1 158-439) (domain or fragment)
binds: all assays above
